Measured data: PubChem BioAssay AID652243 (Drosophila RNAi Screening Center, 2013)
Test: 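Fly regulators of androgen-dependent reporter output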 (primary screen). Cell system: Drosophila S2R+ cells. Knock-down reagent: long dsRNA against Drosophila genes. Time to read-out: 72 h (48 h, then 24 h hormone). Conditions: synthetic androgen R1881 at 10 nM for 24 h. Detection: 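Per-well raw luminescence of the androgen-driven firefly reporter and of the Renilla control, two replicates each, without normalisation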. Scale: firefly reporter light: higher = more light from androgen-responsive reporter; Renilla control light: higher = more constitutive control signal (cell number, transfection). Active means: 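Hit when the log firefly-to-Renilla ratio dropped or increased by a fixed fold versus the mean of GFP or LacZ controls across duplicate plates; lowering cut given as 1.5 and as 3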. Meaning of the calls: active = hit: reporter lowered or raised; inactive = no hit.
In all, the deposit lists about 24,000 reagents; shown is an unselected part of those that have a named target and a result. In the full data, 246 (1%) were called active. 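Plates not normalised; calls are printed but the firefly/Renilla ratio behind them is not deposited; fold cut for lowering reported inconsistently.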 Raw values vary from plate to plate and are shown uncorrected. A plus sign joins genes that one reagent is predicted to hit. Not stated in the record: the amount of reagent.

y (yellow) [DRSC18853]
- firefly reporter light, replicate 1: 3.08e5
- firefly reporter light, replicate 2: 5.17e5
- Renilla control light, replicate 1: 3.79e6
- Renilla control light, replicate 2: 3.09e6
- call: inactive

y (yellow) [DRSC39116]
- firefly reporter light, replicate 1: 4.54e5
- firefly reporter light, replicate 2: 4.59e5
- Renilla control light, replicate 1: 1.79e6
- Renilla control light, replicate 2: 2.38e6
- call: inactive

sing + Axs [DRSC19333]
- firefly reporter light, replicate 1: 3.86e5
- firefly reporter light, replicate 2: 4.08e5
- Renilla control light, replicate 1: 3.21e6
- Renilla control light, replicate 2: 2.99e6
- call: inactive

Map60 (Microtubule-associated protein 60) [DRSC07464]
- firefly reporter light, replicate 1: 1.12e6
- firefly reporter light, replicate 2: 1.17e6
- Renilla control light, replicate 1: 1.33e6
- Renilla control light, replicate 2: 9.23e5
- call: inactive

Ace (Acetylcholine esterase) [DRSC14100]
- firefly reporter light, replicate 1: 79585
- firefly reporter light, replicate 2: 35979
- Renilla control light, replicate 1: 5.71e5
- Renilla control light, replicate 2: 4.55e5
- call: inactive

Ace (Acetylcholine esterase) [DRSC25364]
- firefly reporter light, replicate 1: 1.23e6
- firefly reporter light, replicate 2: 1.11e6
- Renilla control light, replicate 1: 8.01e5
- Renilla control light, replicate 2: 6.64e5
- call: inactive

CG5004 [DRSC19929]
- firefly reporter light, replicate 1: 3.93e5
- firefly reporter light, replicate 2: 4.44e5
- Renilla control light, replicate 1: 4.14e6
- Renilla control light, replicate 2: 3.18e6
- call: inactive

CG5004 [DRSC19930]
- firefly reporter light, replicate 1: 2.27e5
- firefly reporter light, replicate 2: 1.85e5
- Renilla control light, replicate 1: 3.36e6
- Renilla control light, replicate 2: 2.70e6
- call: active

CG8654 [DRSC07231]
- firefly reporter light, replicate 1: 1.42e6
- firefly reporter light, replicate 2: 6.42e5
- Renilla control light, replicate 1: 1.58e6
- Renilla control light, replicate 2: 6.43e5
- call: inactive

AlaRS (Alanyl-tRNA synthetase) [DRSC01851]
- firefly reporter light, replicate 1: 1.04e6
- firefly reporter light, replicate 2: 7.42e5
- Renilla control light, replicate 1: 2.35e6
- Renilla control light, replicate 2: 2.08e6
- call: inactive

GluRIB (Glutamate receptor IB) [DRSC10258]
- firefly reporter light, replicate 1: 2.59e5
- firefly reporter light, replicate 2: 2.55e5
- Renilla control light, replicate 1: 3.40e6
- Renilla control light, replicate 2: 2.89e6
- call: inactive

GluRIB (Glutamate receptor IB) [DRSC11177]
- firefly reporter light, replicate 1: 2.36e5
- firefly reporter light, replicate 2: 2.13e5
- Renilla control light, replicate 1: 2.07e6
- Renilla control light, replicate 2: 9.82e5
- call: inactive

GluRIB (Glutamate receptor IB) [DRSC25464]
- firefly reporter light, replicate 1: 5.89e5
- firefly reporter light, replicate 2: 5.23e5
- Renilla control light, replicate 1: 5.99e5
- Renilla control light, replicate 2: 4.97e5
- call: inactive

CG8501 [DRSC07198]
- firefly reporter light, replicate 1: 1.23e6
- firefly reporter light, replicate 2: 8.00e5
- Renilla control light, replicate 1: 1.40e6
- Renilla control light, replicate 2: 1.34e6
- call: inactive

ATPsynE (ATP synthase, subunit E) [DRSC15476]
- firefly reporter light, replicate 1: 99794
- firefly reporter light, replicate 2: 1.11e5
- Renilla control light, replicate 1: 6.76e5
- Renilla control light, replicate 2: 1.02e6
- call: inactive

ATPsynE (ATP synthase, subunit E) [DRSC30103]
- firefly reporter light, replicate 1: 8.08e5
- firefly reporter light, replicate 2: 7.40e5
- Renilla control light, replicate 1: 1.13e6
- Renilla control light, replicate 2: 9.60e5
- call: inactive

hpRNA:CR18854 (hairpin RNA:CR18854) [DRSC02702]
- firefly reporter light, replicate 1: 2.58e5
- firefly reporter light, replicate 2: 3.17e5
- Renilla control light, replicate 1: 1.61e6
- Renilla control light, replicate 2: 1.65e6
- call: inactive

hpRNA:CR18854 (hairpin RNA:CR18854) [DRSC29809]
- firefly reporter light, replicate 1: 3.82e5
- firefly reporter light, replicate 2: 5.32e5
- Renilla control light, replicate 1: 9.95e5
- Renilla control light, replicate 2: 1.31e6
- call: inactive

Gprk1 (G protein-coupled receptor kinase 1) [DRSC20732]
- firefly reporter light, replicate 1: 1.79e5
- firefly reporter light, replicate 2: 1.91e5
- Renilla control light, replicate 1: 1.87e5
- Renilla control light, replicate 2: 1.48e5
- call: inactive

Gprk1 (G protein-coupled receptor kinase 1) [DRSC20916]
- firefly reporter light, replicate 1: 6.75e5
- firefly reporter light, replicate 2: 1.17e6
- Renilla control light, replicate 1: 6.51e5
- Renilla control light, replicate 2: 7.00e5
- call: inactive

Gprk1 (G protein-coupled receptor kinase 1) [DRSC39307]
- call: inactive
